Measured values reported in PubChem BioAssay AID504834 (National Center for Advancing Translational Sciences (NCATS), 2011).
Hit rate of the full screen: of about 320,000 compounds, about 22,000 (6.9%) were called active. The shares of active, inactive and inconclusive entries below differ from those in the screen. Calls follow the shape of the dose curve; as a rule, active = well fitted inhibition curve with a large enough effect; inconclusive = small, poorly fitted or top-dose-only effect, or another doubt; inactive = no such curve, though single readings can be large or run the other way. Potencies beside an inconclusive call are fits to weak or partial responses and may not hold up.

Experiment: Primary qHTS for delayed death inhibitors of the malarial parasite plastid, 96 hour incubation
Settings: P. falciparum luciferase reporter growth; series mostly up to 28.7 µM
Method in brief: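 P. falciparum expressing integrated firefly luciferase grown in erythrocytes (2% hematocrit, 0.05% parasitemia final) with compounds for 96 hours at 37 C, 5% CO2. Growth inhibition read as loss of luminescence after adding luciferase detection reagent.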
Potency is read from the fitted curve at half-maximal effect.

| SMILES | Potency |
| --- | --- |
| O=C(NCc1nnc(SCc2ccc(C(F)(F)F)cc2)n1-c1ccccc1)C12CC3CC(CC(C3)C1)C2 | active: 1.65 µM |
| O=C(OCC1CC(c2ccccc2)=NO1)c1ccc(Cl)cc1 (stereo not drawn) | inactive |
| CCNc1nc(NCC)n2c(SCC(=O)Nc3ccccc3Cl)nnc2n1 | inconclusive: 14.7 µM [inhibitor, partial curve, poor fit] |
| COc1ccc(N2C(=O)/C(=C\c3ccco3)N=C2SCC(=O)N(C(C)C)C(C)C)cc1Cl | inconclusive: 4.15 µM [inhibitor, single point] |
| COc1ccc(N=Nc2cc(C)c(O)c(CN3CCCCC3)c2)cc1 | active: 0.262 µM |
| O=C(O)CC/C(=C\c1cc2c(cc1Br)OCO2)c1nc2ccccc2s1 | inactive |
| Cc1cc2nnc(SCC(=O)N(C)C3CCS(=O)(=O)C3)n2c2ccccc12 (stereo not drawn) | inactive |
| COc1ccc(OC)c(C(c2c(O)c3ccccc3oc2=O)c2c(C)n(C)n(-c3ccccc3)c2=O)c1 (stereo not drawn) | inconclusive: 13.1 µM [inhibitor, partial curve, poor fit] |
| O=c1c(S(=O)(=O)c2ccc(Cl)cc2)cn(Cc2ccccc2F)c2ccc(F)cc12 | inconclusive: 2.08 µM [inhibitor, full curve] |
| COc1ccc2c(c1)nc(SCC(C)O)n2C (stereo not drawn) | inactive |
| CCCC(=O)NC(c1ccc(Cl)cc1Cl)c1ccc2cccnc2c1O (stereo not drawn) | inactive |
| CCOC(=O)c1c(S(=O)(=O)Nc2cccc(-c3ccno3)c2)c(C)n(C)c1C | inconclusive: 14.7 µM [inhibitor, single point] |
| Cc1ccc(CC(=O)Nc2cccc([N+](=O)[O-])c2)cc1 | inactive |
| C[n+]1cnc(-c2ccccc2)cc1-c1ccccc1 | inactive |
| CCOC(=O)[C@@H]1[C@H]2COc3ccc(Br)cc3[C@H]2N2C(=O)N(c3ccc(F)cc3)C(=O)[C@@]12C | inconclusive: 4.65 µM [inhibitor, partial curve, poor fit] |
| CC1(C)CC(=O)c2c(O)cc(OCC(=O)Nc3ccc(S(N)(=O)=O)cc3)cc2O1 | inconclusive: 10.4 µM [inhibitor, single point] |
| O=C(N/N=C1\CCc2ccccc21)c1ccccc1Cl | inactive |
| CCN(CC)c1ccc(/C=N/NC(=O)c2ccc(Br)o2)cc1 | inconclusive: 18.5 µM [inhibitor, single point] |
| CCn1c(SCC(=O)Nc2nc(C)c(C)s2)nnc1-c1cccs1 | inconclusive: 18.5 µM [inhibitor, partial curve, poor fit] |
| O=C(CC1SC(N2CCCC2)=NC1=O)Nc1ccc(C(=O)N2CCN(c3cccc(Cl)c3)CC2)cc1 (stereo not drawn) | inconclusive: 4.15 µM [inhibitor, partial curve, poor fit] |
| COc1ccc(N(CC(=O)N/N=C/c2cccc(OC)c2OC)S(=O)(=O)c2ccccc2)cc1 | inconclusive: 1.31 µM [inhibitor, full curve] |
| O=C(NCC(c1ccco1)N1CCN(c2ccccc2F)CC1)C(=O)NC1CCCCC1 (stereo not drawn) | inconclusive: 8.28 µM [inhibitor, partial curve] |
| Cc1ccsc1/C=C(\C(=O)c1ccc(OC(C)C)cc1)c1nc2ccccc2o1 | inconclusive: 4.65 µM [inhibitor, partial curve, poor fit] |
| CCn1c(SCC(=O)Nc2ccccc2)nc2c1c(=O)n(C)c(=O)n2C | active: 11.7 µM |
| Cc1cc(C)c(C#N)c(SCc2nnc(-c3ccccc3)o2)n1 | inconclusive: 9.28 µM [inhibitor, partial curve] |

| SMILES | Potency |
| --- | --- |
| COc1ccc(NC(=O)C/C(C)=N/NC(=O)c2cccs2)c([N+](=O)[O-])c1 | inconclusive: 10.4 µM [inhibitor, single point] |
| CCOC(=O)CNC(=O)COc1coc(CN2CCN(c3ccc(F)cc3)CC2)cc1=O | inconclusive: 18.5 µM [inhibitor, single point] |
| Cc1ccc(C)c(N(C(=O)Cn2nnc3ccccc32)C(C(=O)NC(C)(C)C)c2ccsc2)c1 (stereo not drawn) | inconclusive: 2.33 µM [inhibitor, full curve, poor fit] |
| CC(C(=O)N1CCN(Cc2ccccc2)CC1)c1ccc([N+](=O)[O-])cc1 (stereo not drawn) | inactive |
| N#Cc1nc(-c2ccccc2)oc1N1CCCCC1 | inconclusive: 11.7 µM [inhibitor, single point] |
| Nc1c(S(=O)(=O)c2ccccc2)c2nc3ccccc3nc2n1/N=C/c1cccc(O)c1 | inactive |
| O=C(NCCCN1CCCC1)c1ccc2c(c1)N(Cc1ccc(F)cc1)C(=O)c1ccccc1S2=O (stereo not drawn) | inactive |
| O=C(CCS(=O)(=O)c1ccc2c(c1)NC(=O)CS2)NCCc1ccc(Cl)cc1 | inconclusive: 10.4 µM [inhibitor, single point] |
| c1ccc2sc(NC3=NCN(C4CCCCCC4)CN3)nc2c1 | inconclusive: 18.5 µM [inhibitor, single point] |
| COC(=O)c1ccc(C(=O)OC)c(NC(=O)CSc2cccc[n+]2[O-])c1 | active: 1.17 µM |
| CCN1C(=O)/C(=C2/Sc3ccc(OC)cc3N2C)SC1=Nc1ccc(OC)cc1 | active: 9.28 µM |
| Cn1nc(C(F)(F)F)c(C#N)c1N1CCN(c2ccccc2F)CC1 | inactive |
| Cc1cc(=O)c2ccccc2n1Cc1ccccc1 | inconclusive: 0.415 µM [inhibitor, full curve, poor fit] |
| COC(=O)Cn1cnc2c(cnn2-c2ccc(C)cc2)c1=O | inactive |
| CCN(CC)CCCNC(=O)COc1ccc2oc3c(c2c1)CCCC3 | inactive |
| Cc1nn(C)cc1/C=N\NC(=O)c1csc2c1CCCC2 | inactive |
| Cc1cccc[n+]1CC(=O)Nc1ccc([N+](=O)[O-])cc1Cl | inconclusive: 18.5 µM [inhibitor, single point] |
| NS(=O)(=O)c1ccc(NC(=O)/C=C/c2cccc(Cl)c2)cc1 | inactive |
| CCOC(=O)c1cnc2cc3c(cn2c1=O)CCCC3 | inconclusive: 14.7 µM [inhibitor, partial curve, poor fit] |
| Clc1ccc(OCCCN2CCCCC2)c(Br)c1 | inconclusive: 10.4 µM [inhibitor, single point] |
| O=C(c1cccs1)N(Cc1ccco1)C1CCS(=O)(=O)C1 (stereo not drawn) | active: 5.22 µM |
| CCOc1ccc(C(=O)c2nc3c(n2O)CCCC3)cc1 | inconclusive: 8.28 µM [inhibitor, partial curve, poor fit] |
| CCn1c(C)nnc1SCC(=O)Nc1nccs1 | inactive |
| Cc1ccccc1CS(=O)(=O)Cc1ccc(C(=O)NC2CCCCC2)o1 | inconclusive: 11.7 µM [inhibitor, single point] |
| CC1CCCCN1C(=O)Cn1cc(/C=C2/C(=O)Nc3ccccc32)c2ccccc21 (stereo not drawn) | inconclusive: 10.4 µM [inhibitor, single point] |

Arranged by formula weight (low to high): part of the list above

| SMILES | Potency |
| --- | --- |
| Cc1cc(=O)c2ccccc2n1Cc1ccccc1 | inconclusive: 0.415 µM [inhibitor, full curve, poor fit] |
| N#Cc1nc(-c2ccccc2)oc1N1CCCCC1 | inconclusive: 11.7 µM [inhibitor, single point] |
| O=C(c1cccs1)N(Cc1ccco1)C1CCS(=O)(=O)C1 (stereo not drawn) | active: 5.22 µM |

The list continues.

| SMILES | Potency |
| --- | --- |
| COc1ccccc1N1CCN(C(=O)C(F)F)CC1 | inconclusive: 18.5 µM [inhibitor, single point] |
| COc1ccc(S(=O)(=O)N2CCOCC2)cc1NC(=O)CSc1cc(C)ccc1C | active: 7.38 µM |
| COc1ccc(S(=O)(=O)N2CCCOC2CNC(=O)C(=O)NCCCN2CCOCC2)cc1C (stereo not drawn) | inactive |
| Cc1cc(-c2ccc(C(C)C)c(S(=O)(=O)Nc3cc(C)on3)c2)on1 | active: 13.1 µM |
| COc1ccc(S(=O)(=O)NCc2ccc(C(=O)N3CCN(c4ccccn4)CC3)cc2)cc1 | inconclusive: 13.1 µM [inhibitor, partial curve] |
| CCCN(CCC)c1ccc(/C=C/c2ccc3cc(OCC)ccc3n2)cc1 | inactive |
| Cc1cccc(N=C2NN=C(c3c[nH]c4ccccc34)CS2)c1 | inconclusive: 10.4 µM [inhibitor, partial curve, poor fit] |
| CCCC(=O)C1=C(O)C(C(=O)OC)C(C)(C)CC1=Nc1cccc([N+](=O)[O-])c1 (stereo not drawn) | inactive |
| COc1ccc(C)cc1N(CC(=O)N1CCCC1)S(C)(=O)=O | inconclusive: 10.4 µM [inhibitor, partial curve, poor fit] |
| CCN1C(=O)[C@@H]2[C@@H](c3ccc(-c4ccc(C(C)=O)cc4)cc3)N3CCC[C@@]3(C(=O)OC)[C@@H]2C1=O | inconclusive: 11.7 µM [inhibitor, single point] |
| Cc1ccc(O)c(C(=O)c2cnc3c(c2)c(=O)n(C)c(=O)n3C)c1 | active: 10.4 µM |
| CCC(C(=O)NC(C)(C)C)N(C(=O)Cn1nnc(-c2ccccc2F)n1)c1cnc2ccccc2c1 (stereo not drawn) | inactive |
| O=C(O)/C=C\C(=O)Nc1ccc(N2CCN(c3ccc(Cl)cc3)CC2)cc1 | inconclusive: 13.1 µM [inhibitor, single point] |
| BrC(=C\c1ccccc1)/C=N/N1CCN(c2ccccc2)CC1 | inactive |
| CCN1CC2=C(OC(N)=C(C#N)C2c2cccs2)/C(=C/c2cccs2)C1 (stereo not drawn) | inactive |
| CCn1c2ccc(F)cc2c2nnc(NN)nc21 | active: 3.7 µM |
| COC(=O)c1c(NC(=O)c2ccoc2C)sc2c1CCC2 | inconclusive: 3.29 µM [inhibitor, single point] |
| Cc1cccc(NC(=O)CSc2nnc(CNC(=O)c3ccco3)o2)c1 | active: 10.4 µM |
| CC(O)[C@H](NC(=O)C1CCN(C(=O)[C@H](Cc2ccccc2)NC(=O)OC(C)(C)C)CC1)C(=O)O (stereo partly drawn) | inactive |
| O=C(CCc1ccccc1)Nc1ccccc1C(=O)NCc1ccco1 | active: 13.1 µM |
| O=c1[nH]c(=S)[nH]c2c1CN(Cc1ccc(F)cc1)CC2 | inactive |
| CN(C)c1cccc(C(=O)OCC(=O)Nc2ccccc2-c2ccccc2)c1 | inconclusive: 11.7 µM [inhibitor, single point] |
| O=C1CCc2cc(S(=O)(=O)N3CCN(Cc4ccc5c(c4)OCO5)CC3)ccc2N1 | inactive |

A second format for part of the listing above.
SMILES | Potency
CC1(C)CC(=O)c2c(O)cc(OCC(=O)Nc3ccc(S(N)(=O)=O)cc3)cc2O1 | inconclusive: 10.4 µM [inhibitor, single point]
O=C(N/N=C1\CCc2ccccc21)c1ccccc1Cl | inactive
CCN(CC)c1ccc(/C=N/NC(=O)c2ccc(Br)o2)cc1 | inconclusive: 18.5 µM [inhibitor, single point]
